Series [1] is described as follows: reverse osmosis, exclusion ratio with NF40HF membrane (Example 1). The note with it: 15 wt% isopropyl alcohol, 1 wt% L-tryptophan, pH 3.0, 40° C., 40 kg/cm^2.
Series [2] is described as follows: reverse osmosis, exclusion ratio with HR98 membrane (Example 1). The note with it: HR98, 15 wt% isopropyl alcohol, 1 wt% L-tryptophan, pH 3.0, 40° C., 40 kg/cm^2.
Series [3] is described as follows: reverse osmosis, exclusion ratio with NF70 membrane (Example 3). The settings on record: NF70, 15 wt% isopropyl alcohol, 1 wt% L-tryptophan, pH 9.5, 40° C., 15 kg/cm^2.
Series [4] can be described thus: exclusion ratio for solute in a wholly circulating method, varying the pH (Example 5). The note with it: 40° C., 40 kg/cm^2.

The structures appear in SMILES notation.

As for `CC(C)O` [isopropyl alcohol], the figures for the exclusion ratio in series [1], in series [2] and in series [3] were 19.6%, 79.0% and 16.0%, respectively.
Consider `N[C@@H](Cc1c[nH]c2ccccc12)C(=O)O` [L-tryptophan], for which the exclusion ratio in series [4] (pH 1.8, 15 wt% tert-butyl alcohol) came out at 85.0%; in series [4] (pH 5.9, 15 wt% tert-butyl alcohol) it was 69.5%; in series [1], 89.7%; in series [2] it was 98.5%; in series [3] it was 90.6%.

The values above are taken from patent US4837371A, “Process for concentration of an aqueous solution of amino acid” (Mitsui Toatsu Chemicals, Inc., priority 1986, dated 1989).
